No constants are given. Whether binding was seen depends on the method and setting. In cells and extracts the contact can be indirect. A yes stands for co-enrichment or nearness to the bait. Other partners may have been found.
T1: CRIS (cyclic nucleotide receptor involved in sperm function) (mouse (endogenous in sperm precursor cells)) (UniProt Q9D5U8)
T1 sequence: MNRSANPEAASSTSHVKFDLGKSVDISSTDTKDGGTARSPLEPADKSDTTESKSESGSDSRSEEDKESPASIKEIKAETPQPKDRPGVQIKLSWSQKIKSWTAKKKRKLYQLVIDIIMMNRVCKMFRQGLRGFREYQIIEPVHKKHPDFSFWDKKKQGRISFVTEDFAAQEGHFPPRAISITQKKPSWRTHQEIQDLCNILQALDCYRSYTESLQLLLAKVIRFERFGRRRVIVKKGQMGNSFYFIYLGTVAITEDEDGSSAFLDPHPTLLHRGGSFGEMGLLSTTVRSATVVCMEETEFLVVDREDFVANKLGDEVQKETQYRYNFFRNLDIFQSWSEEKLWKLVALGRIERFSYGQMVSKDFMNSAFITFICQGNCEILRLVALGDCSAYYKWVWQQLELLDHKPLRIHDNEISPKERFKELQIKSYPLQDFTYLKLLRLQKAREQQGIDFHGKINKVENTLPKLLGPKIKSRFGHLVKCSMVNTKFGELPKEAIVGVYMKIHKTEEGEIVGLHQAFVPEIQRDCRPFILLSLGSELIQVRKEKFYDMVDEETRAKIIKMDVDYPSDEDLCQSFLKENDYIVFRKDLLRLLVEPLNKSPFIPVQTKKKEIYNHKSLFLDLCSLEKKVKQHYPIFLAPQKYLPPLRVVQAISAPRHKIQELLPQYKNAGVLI

B1: Sister chromatid cohesion protein PDS5 homolog B (protein, UniProt Q4VA53-1 1-1446)
chain: MAHSKTRTNDGKITYPPGVKEISDKISKEEMVRRLKMVVKTFMDMDQDSEEEKELYLNLALHLASDFFLKHPDKDVRLLVACCLADIFRIYAPEAPYTSPDKLKDIFMFITRQLKGLEDTKSPQFNRYFYLLENIAWVKSYNICFELEDSNEIFTQLYRTLFSVINNGHNQKVHMHMVDLMSSIICEGDTVSQELLDTVLVNLVPAHKNLNKQAYDLAKALLKRTAQAIEPYITNFFNQVLMLGKTSISDLSEHVFDLILELYNIDSHLLLSVLPQLEFKLKSNDNEERLQVVKLLAKMFGAKDSELASQNKPLWQCYLGRFNDIHVPIRLECVKFASHCLMNHPDLAKDLTEYLKVRSHDPEEAIRHDVIVSIVTAAKKDILLVNDHLLNFVRERTLDKRWRVRKEAMMGLAQIYKKYSLQSAAGKDAAKQISWVKDKLLHIYYQNSIDDRLLVERIFAQYMVPHNLETTERMKCLYYLYATLDLNAVKALNEMWKCQNLLRHQVKDLLDLIKQPKTDASVKAIFSKVMVITRNLPDPGKAQDFMKKFTQVLEDDEKIRKQLEALVSPTCSCKQAEGCVREITKKLGNPKQPTNPFLEMIKFLLERIAPVHIDTESISALIKQVNKSIDGTADDEDEGVPTDQAIRAGLELLKVLSFTHPISFHSAETFESLLACLKMDDEKVAEAALQIFKNTGSKIEEDFPHIRSALLPVLHHKSKKGPPRQAKYAIHCIHAIFSSKETQFAQIFEPLHKSLDPSNLEHLITPLVTIGHIALLAPDQFAAPLKSLVATFIVKDLLMNDRLPGKKTTKLWVPDEEVSPETMVKIQAIKMMVRWLLGMKNNHSKSGTSTLRLLTTILHSDGDLTEQGKISKPDMSRLRLAAGSAIVKLAQEPCYHEIITLEQYQLCALAINDECYQVRQVFAQKLHKGLSRLRLPLEYMAICALCAKDPVKERRAHARQCLVKNITVRREYLKQHAAVSEKLLSLLPEYVVPYTIHLLAHDPDYVKVQDIEQLKDVKECLWFVLEILMAKNENNSHAFIRKMVENIKQTKDAQGPDDTKMNEKLYTVCDVAMNIIMSKSTTYSLESPKDPVLPARFFTQPDKNFSNTKNYLPPEMKSFFTPGKPKTANVLGAVNKPLSSAGKQSQTKSSRMETVSNASSSSNPSSPGRIKGRLDSSEMDHSENEDYTMSSPLPGKKSDKREDPDLSELEKPRSRKKAPVTDPEEKLGMDDLTKLVQEQKPKGSQRGRKRGRTASDSDEQQWPEEKRHKEELLENEDEQNSPPKKGKRGRPPKPLGGGTSKEEPTMKTSKKGNKKKLVPPVVDDDEEEERQIGNTEHKSKSKQHRTSKRAQQRAESPETSAVESTQSTPQKGRGRPSKAPSPSQPPKKIRVGRSKQVATKENDSSEEMDVLQASSPVSDDTTQEGAEEEDISVGNVRRRSSKRERR
B2: Mediator of RNA polymerase II transcription subunit 17 (protein, UniProt Q8VCD5 1-649)
chain: MSGVRAVRISIESACEKQVQEVGLDGTETYLQPLSMSQNLARLAQRIDFSQGSGSEEEEAAGPDGDAPDWGGAGADQDDEEGLVKFQPSLWPWDSVRNNLRSALTEMCVLYDVLSIVRDKKFMTLDPVSQDALPPKQSPQTLQLISKKKSLAGAAQILLKGAERLTKSVAENQENKLQRDFNSELLRLRQHWKLRKVGDKILGDLSYRSAGSLFPHHGTFEVIKNTDIDLDKKIPEDYCPLDVQIPSDLEGSAYIKVSIQKQAPDIGDLGTVNLFKRPLPKSKPGSPHWQTKLEAAQNVLLCKEIFAQLSREAVQIKSQIPHIVVKNQIISQPFPSLQLSISLCHSSDDKKSQKCAAEKPGQEDHLYVLEHNLHLLIREFHKQTLSSIVMPHPASAPFGHKRMRLSGPQAFDKNEINSIQSTEGLLEKIIKQAKHIFLRSRTAATIDSLASRIEDPQIQAHWSNINDVYESSVKVLITSQGYEQICKSIQLQLNIGVEQVRVVHRDGRVIMLSHQEQELQDFLLSQMSQHQVHAVQQLAKVMGWQVLSFSNHVGLGPIESIGNASAITVASPSGDYAISVRNGPESGSKIMVQFPRNQCKDLPKSDVLQDSKWSHLRGPFKEVQWNKMEGRNFVYKMELLMSALSPCLL
B3: IQ calmodulin-binding motif-containing protein 1 (protein, UniProt Q8BP00-1 1-598)
chain: MKPAGTDPRILSLAAEVAKSPEQNVPVILLKLKEIINNTPLGSSELKKVKQDIYCYDLIQYCLLVLSQDSSRIQGGWSTISQLTQILSHCCVGLEPGEDGEEFYKELLPSAAENFLILGRRLQTCFINATKGEEQDKLLHFFQIVTDSLFWLLGGHVQLIQNVLQSDHFLHLLQTDNVQIGASVMTLLQNILQINSGNLLKIEGKALHSILDEILFKLLSTPSPVIRSTATKLLLVLAESHQEILILLRLSACYKGLRSLLNKQETLTEFSRELRQLVDLLTPKIHQEVEEQKLHKAACLIQAYWKGFQTRKRLKKLPSAVIALQRSFRSKRTKMMLELNRQKEEEDLRLKLQLQRQRAMRLSRESRLNMLEIIHPGQVEKYNREMEEKSALTIQKHWRGYRERKNFRQQRPSLTEYKAAVTLQRAVLKFLAKCRKKKKLFASWHGLQELTDARRVELKQQVDDYVKRHPCSQMSEAASRELHAQAQERLQHYFMGRAIEERAQQHREALMAQISTNIEQLMKAPSLKEAEGKEPEQFLSRSRPVAAKAKQAHLTTLKHIQAPWWKKLGEEPGDEVDVPKDELSIDLGMLFIGGTKPP
B4: Protein KTI12 homolog (protein, UniProt Q9D1R2 1-351)
chain: MPLVVVCGLPSSGKSQRTEELRRALASEGRAVYVVDDASVLGAQDPTVYGDSAGEKALRAALRAAVERRLSRQDVVILDSVNYIKGFRYELYCLARAARTPLCLLYCVRPNWPSRELREASASENRDLAVSVSWRPRAETGGKSQAAGAVEEQRATSPVANGGVLAAVSKELDPEEILPSNPSAVMTPGSEKSAEPASCAFPPEVLESLALRFESPDSRNRWDRPLFTVVGLEEPLPLAEIRSALFENRAPPPHQSTQSQPLASGSFLHQLDQATSQVLTAVMEAQKSAVPGDFLKLPGTTEPLRFTRPLTLAELSRLRRQFISYTKMHPNNENLPQLANMFLQYLNQSLH
B5: ATP-binding cassette sub-family F member 2 (protein, UniProt Q99LE6 1-628)
chain: MPSDLAKKKAAKKKEAAKARQRPRKGHEENGDAVTEPQVAEEKIEEANGRETTGDGEVDLLTKELEDFEMKKAAARAVTGVLASHPNSTDVHIINLSLTFHGQELLSDTKLELNSGRRYGLIGLNGIGKSMLLSAIGKREVPIPEHIDIYHLTREMPPSEKTPLQCVMEVDTERAMLEREAERLAHEDAECEKLMELYERLEELDADKAEMRASRILHGLGFTPAMQRKKLKDFSGGWRMRVALARALFIRPFMLLLDEPTNHLDLDACVWLEEELKTFKRILVLVSHSQDFLNGVCTNIIHMHNKKLKYYTGNYDQYVKTRLELEENQMKRFHWEQDQIAHMKNYIARFGHGSAKLARQAQSKEKTLQKMMASGLTERVVSDKTLSFYFPPCGKIPPPVIMVQNVSFKYTKDGPCIYNNLEFGIDLDTRVALVGPNGAGKSTLLKLLTGELLPTDGMIRKHSHVKIGRYHQHLQEQLDLDLSPLEYMMKCYPEIKEKEEMRKIIGRYGLTGKQQVSPIRNLSDGQKCRVCLAWLAWQNPHMLFLDEPTNHLDIETIDALADAINEFEGGMMLVSHDFRLIQQVAQEIWVCEKQTITKWPGDILAYKEHLKSKLVDEEPQLTKRTHNV
B6: Sorting nexin-4 (protein, UniProt Q91YJ2 1-450)
chain: MEQAPPDPEKLLQPGPLEPLGGPGAVLEAAVGEENEGTREDGSGVDTMTGNNFWLKKIEISVSEAEKRTGRNAVNMQETYTAYLIETRSVEHADGQSVLTDSLWRRYSEFELLRNYLLVYYPHVVVPPLPEKRAEFVWHKLSADNMDPDFVERRRVGLENFLLRVASHPVLCRDKIFYSFLTQEGNWKETVNETGFQLKADSRLKALNATFRVKNPDKRFTELRHYSDELQSVISHLLRVRARVADRLYGVYKVHGNYGRVFSEWSAIEKEMGDGLQSAGHHMDVYASSIDDILEDEEHYADQLKEYLFYAEALRAVCRKHELMQYDLETAAQDLAAKKQQCEELATGTVRTFSLKGMTTKLFGQETPEQREARIKVLEEQINEGEQQLKSKNLEGREFVKNAWADIERFKEQKNRDLKEALISYAVMQISMCKKGIQVWTNAKECFSKM

Each binder was assayed against T1, CRIS (cyclic nucleotide receptor involved in sperm function) (mouse (endogenous in sperm precursor cells)) (assay: affinity purification with mass spectrometry; co-immunoprecipitation of endogenous CRIS from sperm precursor cells of wild-type mice; 500 µg total lysate on a column of monoclonal antibody 4B2 or 4E4 covalently coupled to Protein G, overnight at 4°C, washed four times with lysis buffer (10 mM Tris/HCl pH 7.6, 140 mM NaCl, 1 mM EDTA, 1% Triton-X 100), eluted in SDS sample buffer, SDS-PAGE, LC-MS/MS; cells of Cris-deficient mice as negative control).

binding, binds:
B1
B2
B3
B4
B5
B6
